Measurements published in PMC8674365.
No constants are given. Whether binding was seen depends on the method and setting. For some of these results: In cells and extracts the contact can be indirect. Some results given as binding are weak or reduced against the parent protein; the word gives no strength.

Sequences of proteins named here, by UniProt entry; tags and fusion partners are left off. A change or cut given only in a name is not applied to a line headed by its entry. A line that says so, or that is headed by a name, gives the form on record, which may keep a tag or linker.
UniProt P53762: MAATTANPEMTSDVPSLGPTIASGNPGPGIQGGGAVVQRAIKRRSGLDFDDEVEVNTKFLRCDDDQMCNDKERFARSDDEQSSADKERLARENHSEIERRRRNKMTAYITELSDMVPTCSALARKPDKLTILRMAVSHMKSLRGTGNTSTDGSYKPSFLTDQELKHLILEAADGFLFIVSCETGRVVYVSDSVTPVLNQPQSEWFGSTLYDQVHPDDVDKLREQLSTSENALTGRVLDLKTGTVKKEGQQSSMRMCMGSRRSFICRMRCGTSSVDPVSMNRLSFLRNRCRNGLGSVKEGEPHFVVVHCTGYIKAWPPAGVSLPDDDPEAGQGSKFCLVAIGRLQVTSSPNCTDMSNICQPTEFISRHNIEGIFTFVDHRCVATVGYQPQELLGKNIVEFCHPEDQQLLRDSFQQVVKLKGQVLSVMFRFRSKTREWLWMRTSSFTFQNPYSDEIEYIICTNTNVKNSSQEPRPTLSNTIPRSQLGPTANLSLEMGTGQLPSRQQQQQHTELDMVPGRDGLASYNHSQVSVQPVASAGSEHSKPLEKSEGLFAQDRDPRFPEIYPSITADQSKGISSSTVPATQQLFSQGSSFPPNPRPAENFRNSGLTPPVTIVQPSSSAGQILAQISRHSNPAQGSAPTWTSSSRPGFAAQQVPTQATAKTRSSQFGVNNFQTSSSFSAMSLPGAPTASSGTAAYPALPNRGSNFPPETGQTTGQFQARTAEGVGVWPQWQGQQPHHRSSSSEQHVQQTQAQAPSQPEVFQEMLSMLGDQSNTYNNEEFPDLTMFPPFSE
Ser77/Asp-mutant ARNT, myc-tagged and EGFP-tagged copies co-expressed (P53762, form named): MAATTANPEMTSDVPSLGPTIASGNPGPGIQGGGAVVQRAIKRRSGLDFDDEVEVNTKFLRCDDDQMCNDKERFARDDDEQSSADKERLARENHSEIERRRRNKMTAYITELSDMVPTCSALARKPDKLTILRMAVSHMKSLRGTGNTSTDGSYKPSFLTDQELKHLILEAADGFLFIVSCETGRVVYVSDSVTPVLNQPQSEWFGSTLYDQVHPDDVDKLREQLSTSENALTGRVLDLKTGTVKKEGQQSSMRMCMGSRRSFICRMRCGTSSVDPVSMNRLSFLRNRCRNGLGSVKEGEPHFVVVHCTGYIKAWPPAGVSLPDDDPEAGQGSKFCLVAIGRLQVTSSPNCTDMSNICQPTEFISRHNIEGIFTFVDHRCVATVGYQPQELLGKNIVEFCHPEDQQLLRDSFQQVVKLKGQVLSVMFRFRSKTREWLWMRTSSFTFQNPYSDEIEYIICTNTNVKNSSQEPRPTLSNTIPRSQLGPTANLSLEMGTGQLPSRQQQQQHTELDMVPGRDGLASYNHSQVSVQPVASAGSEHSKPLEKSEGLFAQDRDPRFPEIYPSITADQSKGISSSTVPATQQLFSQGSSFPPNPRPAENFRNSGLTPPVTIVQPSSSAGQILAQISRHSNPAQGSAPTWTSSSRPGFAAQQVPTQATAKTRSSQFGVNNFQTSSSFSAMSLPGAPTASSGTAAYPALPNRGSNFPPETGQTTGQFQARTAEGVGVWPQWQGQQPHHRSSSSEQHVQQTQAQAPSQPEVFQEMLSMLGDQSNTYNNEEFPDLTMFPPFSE

Assays:
[1] = target: Endogenous ARNT of mouse kidney (UUO-challenged C57BL/6 mice) (mouse (endogenous in kidney)) (UniProt P53762); assay: condition: only vehicle-treated mice, without LB100; native MS; liquid native MALDI mass spectrometry of endogenous ARNT pulled down from total kidney lysates of vehicle-treated UUO mice; eluted in 0.3% TFA, mixed with ammonium acetate buffer (100 mM, pH 9), glycerol
[2] = target: Endogenous ARNT of mouse kidney (UUO-challenged C57BL/6 mice) (mouse (endogenous in kidney)) (UniProt P53762); assay: native gel or EMSA; endogenous ARNT pull-down from total kidney lysates of UUO mice given LB100, FK506, GPI1046 or combinations; Blue Native PAGE, immunoblot with ARNT antibody
[3] = target: Ser77/Asp-mutant ARNT, myc-tagged and EGFP-tagged copies co-expressed (mouse) (UniProt P53762); assay: proximity ligation; HEK293 cells co-transfected with EGFP- and myc-tagged constructs, 5 µM LB100 for 4 h, fixed in methanol; EGFP and myc-tag antibodies, Duolink In Situ Red kit
[4] = target: Ser77/Asp-mutant ARNT, myc-tagged and EGFP-tagged copies co-expressed (mouse) (UniProt P53762); assay: co-IP; HEK293 cells co-transfected with myc-tagged and EGFP-tagged ARNT; immunoprecipitation with myc or EGFP antibodies, immunoblot; cells treated 4 h with DMSO, LB100 (5 µM), okadaic acid (50 nM) or tautomycetin (200 nM)

Row | binding [1] | binding [2] | binding [3] | binding [4] | Substance
1 | no binding | binds | – | – | Endogenous ARNT of mouse kidney (UUO-challenged C57BL/6 mice) (from UniProt P53762 1-791)
2 | – | – | no binding | no binding | Ser77/Asp-mutant ARNT, myc-tagged and EGFP-tagged copies co-expressed (from UniProt P53762 1-791)
